In paper PMC9653720:
No constants are given. Whether binding was seen depends on the method and setting. In cells and extracts the contact can be indirect. Here binding means that the protein was enriched with, or labelled near, the bait; the list need not be complete.

Protein sequences, listed by entry. Tags and fused reporters are not part of them. Lines headed by an entry give the natural chain unless they say otherwise; changes in a name come on top.
UniProt Q9BYW2: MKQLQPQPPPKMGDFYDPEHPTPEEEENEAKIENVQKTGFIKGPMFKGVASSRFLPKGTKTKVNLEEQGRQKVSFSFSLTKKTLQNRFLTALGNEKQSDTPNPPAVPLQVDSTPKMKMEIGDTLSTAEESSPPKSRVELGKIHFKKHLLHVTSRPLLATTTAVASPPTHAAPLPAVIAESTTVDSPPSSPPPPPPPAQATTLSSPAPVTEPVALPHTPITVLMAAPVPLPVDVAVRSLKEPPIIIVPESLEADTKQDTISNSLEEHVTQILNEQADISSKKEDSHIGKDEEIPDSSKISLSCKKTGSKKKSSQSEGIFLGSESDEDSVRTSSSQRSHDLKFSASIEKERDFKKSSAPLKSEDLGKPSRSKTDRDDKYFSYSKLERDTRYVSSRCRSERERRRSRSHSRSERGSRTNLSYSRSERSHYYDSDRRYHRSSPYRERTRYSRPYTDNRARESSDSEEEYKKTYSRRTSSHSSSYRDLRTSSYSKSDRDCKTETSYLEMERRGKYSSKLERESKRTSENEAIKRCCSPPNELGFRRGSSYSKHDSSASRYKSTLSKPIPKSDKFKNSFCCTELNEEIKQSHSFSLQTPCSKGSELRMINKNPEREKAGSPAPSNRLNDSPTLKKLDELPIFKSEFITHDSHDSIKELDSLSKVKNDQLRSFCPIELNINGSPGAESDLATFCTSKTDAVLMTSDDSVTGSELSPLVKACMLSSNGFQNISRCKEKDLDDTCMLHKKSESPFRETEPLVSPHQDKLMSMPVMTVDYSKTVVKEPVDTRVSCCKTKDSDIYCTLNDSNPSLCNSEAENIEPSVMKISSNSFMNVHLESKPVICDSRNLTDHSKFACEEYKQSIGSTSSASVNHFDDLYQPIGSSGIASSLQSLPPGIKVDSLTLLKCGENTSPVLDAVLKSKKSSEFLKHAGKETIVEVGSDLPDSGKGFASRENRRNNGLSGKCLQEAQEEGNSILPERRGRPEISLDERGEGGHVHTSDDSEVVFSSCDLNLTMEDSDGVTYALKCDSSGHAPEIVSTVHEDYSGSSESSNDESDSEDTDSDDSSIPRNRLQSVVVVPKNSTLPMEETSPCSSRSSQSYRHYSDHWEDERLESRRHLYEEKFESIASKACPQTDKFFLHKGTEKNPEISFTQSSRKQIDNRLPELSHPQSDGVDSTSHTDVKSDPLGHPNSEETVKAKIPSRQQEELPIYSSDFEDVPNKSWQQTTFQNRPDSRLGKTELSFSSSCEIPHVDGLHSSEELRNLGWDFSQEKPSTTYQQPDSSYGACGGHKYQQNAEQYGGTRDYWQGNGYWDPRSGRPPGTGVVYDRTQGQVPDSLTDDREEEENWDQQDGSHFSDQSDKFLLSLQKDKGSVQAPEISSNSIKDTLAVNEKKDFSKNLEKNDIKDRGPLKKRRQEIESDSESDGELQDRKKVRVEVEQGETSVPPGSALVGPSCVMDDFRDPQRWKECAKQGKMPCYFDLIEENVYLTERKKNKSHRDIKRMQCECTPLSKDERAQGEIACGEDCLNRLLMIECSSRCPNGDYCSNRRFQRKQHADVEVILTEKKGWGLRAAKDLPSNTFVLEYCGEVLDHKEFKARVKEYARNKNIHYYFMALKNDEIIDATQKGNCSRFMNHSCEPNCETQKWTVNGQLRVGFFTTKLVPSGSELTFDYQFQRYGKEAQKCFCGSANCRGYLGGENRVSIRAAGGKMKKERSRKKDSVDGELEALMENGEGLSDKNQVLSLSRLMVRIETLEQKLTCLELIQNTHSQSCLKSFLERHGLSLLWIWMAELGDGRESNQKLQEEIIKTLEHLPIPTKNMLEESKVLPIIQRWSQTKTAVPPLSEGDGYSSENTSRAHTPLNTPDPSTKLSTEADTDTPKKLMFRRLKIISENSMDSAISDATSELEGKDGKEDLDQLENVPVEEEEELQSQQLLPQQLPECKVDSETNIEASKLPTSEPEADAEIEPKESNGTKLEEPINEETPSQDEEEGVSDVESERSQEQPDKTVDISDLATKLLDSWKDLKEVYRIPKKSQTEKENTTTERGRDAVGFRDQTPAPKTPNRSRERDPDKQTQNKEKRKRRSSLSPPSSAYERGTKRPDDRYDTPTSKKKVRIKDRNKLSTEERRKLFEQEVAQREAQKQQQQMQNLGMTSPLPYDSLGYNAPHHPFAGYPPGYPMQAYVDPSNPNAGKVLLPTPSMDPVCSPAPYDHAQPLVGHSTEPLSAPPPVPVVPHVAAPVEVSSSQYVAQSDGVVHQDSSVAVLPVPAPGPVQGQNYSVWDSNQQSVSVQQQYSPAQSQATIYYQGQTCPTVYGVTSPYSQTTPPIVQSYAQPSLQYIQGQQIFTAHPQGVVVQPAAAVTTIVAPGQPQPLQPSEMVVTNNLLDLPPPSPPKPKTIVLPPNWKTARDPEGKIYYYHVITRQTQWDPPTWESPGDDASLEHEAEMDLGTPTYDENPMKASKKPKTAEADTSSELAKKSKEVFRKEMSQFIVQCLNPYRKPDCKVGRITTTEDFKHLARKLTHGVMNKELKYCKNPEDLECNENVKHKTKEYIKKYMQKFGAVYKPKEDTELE
UniProt Q8TDY2: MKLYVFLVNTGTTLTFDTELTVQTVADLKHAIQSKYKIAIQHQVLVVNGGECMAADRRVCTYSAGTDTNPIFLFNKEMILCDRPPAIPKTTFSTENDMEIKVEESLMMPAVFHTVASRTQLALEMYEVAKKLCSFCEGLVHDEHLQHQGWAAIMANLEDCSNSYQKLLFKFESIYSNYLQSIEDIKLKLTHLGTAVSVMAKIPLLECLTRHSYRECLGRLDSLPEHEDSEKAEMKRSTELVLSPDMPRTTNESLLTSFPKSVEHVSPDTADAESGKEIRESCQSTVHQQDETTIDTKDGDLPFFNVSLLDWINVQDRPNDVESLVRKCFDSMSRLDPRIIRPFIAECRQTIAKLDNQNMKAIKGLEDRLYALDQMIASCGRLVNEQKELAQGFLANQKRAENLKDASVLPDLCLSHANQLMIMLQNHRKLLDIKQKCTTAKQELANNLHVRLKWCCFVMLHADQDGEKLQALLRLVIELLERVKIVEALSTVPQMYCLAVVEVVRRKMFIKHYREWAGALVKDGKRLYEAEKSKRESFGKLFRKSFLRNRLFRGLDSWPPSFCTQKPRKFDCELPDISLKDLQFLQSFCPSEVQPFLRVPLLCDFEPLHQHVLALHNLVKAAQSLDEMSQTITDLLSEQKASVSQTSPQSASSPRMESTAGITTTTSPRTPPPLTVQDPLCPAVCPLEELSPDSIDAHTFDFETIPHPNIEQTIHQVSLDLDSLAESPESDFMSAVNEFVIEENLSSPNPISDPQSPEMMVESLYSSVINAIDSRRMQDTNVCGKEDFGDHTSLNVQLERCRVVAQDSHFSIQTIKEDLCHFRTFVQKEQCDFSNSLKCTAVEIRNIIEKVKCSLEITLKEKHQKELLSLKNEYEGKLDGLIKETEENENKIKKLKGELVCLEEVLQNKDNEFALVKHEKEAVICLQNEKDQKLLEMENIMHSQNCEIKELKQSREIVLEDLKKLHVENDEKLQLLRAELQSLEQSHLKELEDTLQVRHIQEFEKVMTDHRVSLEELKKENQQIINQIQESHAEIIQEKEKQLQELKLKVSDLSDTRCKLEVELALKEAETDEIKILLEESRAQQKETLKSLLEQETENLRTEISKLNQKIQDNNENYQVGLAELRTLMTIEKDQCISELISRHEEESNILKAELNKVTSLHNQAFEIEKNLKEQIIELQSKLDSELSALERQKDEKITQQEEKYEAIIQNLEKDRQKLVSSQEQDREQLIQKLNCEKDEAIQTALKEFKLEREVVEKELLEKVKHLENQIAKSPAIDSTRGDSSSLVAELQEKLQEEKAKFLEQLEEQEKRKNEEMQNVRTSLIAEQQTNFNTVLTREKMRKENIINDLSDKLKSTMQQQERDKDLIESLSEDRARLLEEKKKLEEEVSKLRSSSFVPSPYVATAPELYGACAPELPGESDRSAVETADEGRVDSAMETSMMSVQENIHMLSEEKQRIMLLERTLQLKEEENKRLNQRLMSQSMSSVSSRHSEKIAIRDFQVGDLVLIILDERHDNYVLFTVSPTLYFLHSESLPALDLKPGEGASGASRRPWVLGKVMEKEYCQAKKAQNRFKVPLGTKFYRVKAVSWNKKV
UniProt P19474: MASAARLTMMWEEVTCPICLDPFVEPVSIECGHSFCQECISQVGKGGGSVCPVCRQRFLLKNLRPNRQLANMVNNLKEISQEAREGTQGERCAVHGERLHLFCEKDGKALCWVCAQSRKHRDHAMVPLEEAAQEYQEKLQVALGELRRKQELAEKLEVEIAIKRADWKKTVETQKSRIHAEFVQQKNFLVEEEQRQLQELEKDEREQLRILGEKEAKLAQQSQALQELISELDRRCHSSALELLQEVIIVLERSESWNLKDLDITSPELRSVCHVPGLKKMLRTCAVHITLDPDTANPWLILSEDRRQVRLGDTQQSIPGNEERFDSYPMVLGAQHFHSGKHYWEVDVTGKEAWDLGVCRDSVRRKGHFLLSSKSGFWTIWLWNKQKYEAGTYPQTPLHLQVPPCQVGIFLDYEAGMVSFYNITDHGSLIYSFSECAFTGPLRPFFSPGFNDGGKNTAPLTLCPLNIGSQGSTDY

Legend:
[1] = biological target: SET domain containing 2 (SETD2), endogenous (human (endogenous in HEK293)) (UniProt Q9BYW2); experiment: affinity purification with mass spectrometry; SETD2 pulldown from HEK293 lysate, MS analysis (Figure S2)
[2] = biological target: flag-FIP200 K1133R (human) (UniProt Q8TDY2); experiment: affinity purification with mass spectrometry; pulldown in cells transfected with flag-FIP200 or flag-FIP200 K1133R, MS analysis of the total proteins bound to FIP200 (Figure S3)
flag-FIP200 (human) = flag-FIP200 (human) (UniProt Q8TDY2); experiment: as above

binding [1] | binding [2] | binding (flag-FIP200 (human)) | Substance
binds | – | – | focal adhesion kinase family interacting protein of 200 kD (FIP200), endogenous (from UniProt Q8TDY2 1-1594)
– | binds | binds | Trim21, endogenous (from UniProt P19474 1-475) (enzyme)
